From paper PMC8764522
Results are given in words; binding and its absence hold for the method and conditions named. Binding calls can cover weak binding; strength is not graded here.

Biological target: PfsE^W18A (filamentous bacteriophage Pf4 (prophage of P. aeruginosa PAO1))
Assay: two-hybrid; bacterial adenylate cyclase two-hybrid (BACTH) in E. coli BTH101; fusions in pKT25 and pUT18C; X-gal and MacConkey agar plates with 1 mM IPTG, 30°C, 48 h; read-out β-galactosidase activity (colour change)

B1: PilC, type IV pili inner-membrane platform protein (protein, UniProt P22609 1-374)
chain: MLVKAHLRKQGINPLKVRKKGISLLGAGKKVKPMDIALFTRQMATMMGAGVPLLQSFDIIGEGFDNPNMRKLVDEIKQEVSSGNSLANSLRKKPQYFDELYCNLVDAGEQSGALENLLDRVATYKEKTESLKAKIRKAMTYPIAVIIVALIVSAILLIKVVPQFQSVFQGFGAELPAFTQMVVNLSEFLQEWWLAVIVGVGAIGFTFKELHKRSKKFRDTLDRTILKLPIFGGIVYKSAVARYARTLSTTFAAGVPLVDALDSVSGATGNIVFKNAVSKIKQDVSTGMQLNFSMRTTSVFPNMAIQMTAIGEESGSLDEMLSKVASYYEEEVDNAVDNLTTLMEPMIMAVLGVLVGGLIVAMYLPIFQLGNVVG
  binding: binds
